From patent US6509401B1, “Synergistic flame retardant combination of salts of 1-hydroxy-dihydrophosphole oxides and/or 1-hydroxyphospholane oxides and nitrogen compounds for use in polymers” (Clariant GmbH, priority 1997, dated 2003)

Legend:
[1] = UL 94 test (Underwriter Laboratories) flame retardancy classification of injection-molded test specimens; parameters: key: n. c. = not classifiable
[2] = Oxygen index (LOI in accordance with ASTM D 2863-77)
[3] = PBT-GV, nitrogen compound 10 % as sole flame retardant
[4] = PBT-GV, nitrogen compound 20 % as sole flame retardant
[5] = PBT-GV, 20 % as sole flame retardant
[6] = PBT-GV, 25 % as sole flame retardant
[7] = ABS, 30 % as sole flame retardant

Nc1nc(N)nc(N)n1.O=c1[nH]c(=O)[nH]c(=O)[nH]1 [Melamine cyanurate]
UL 94 classification (1.6 mm) [1, 3]: n. c.*)
UL 94 classification (1.6 mm) [1, 4]: n. c.*)
UL 94 classification (1.6 mm) ([1]; PBT-GV, nitrogen compound 25 % as sole flame retardant): n. c.*)

Nc1nc(N)nc(N)n1.O=P(O)(O)O [Melamine phosphate]
UL 94 classification (1.6 mm) [1, 3]: n. c.*)
UL 94 classification (1.6 mm) [1, 4]: n. c.*)

CC1CCP(=O)([O-])C1.CC1CCP(=O)([O-])C1.CC1CCP(=O)([O-])C1.[Al+3] (stereo not shown) [Methyl-PHOLAL, Aluminum salt of 1-hydroxy-3-methyl-1H-phospholane 1-oxide]
UL 94 classification (1.6 mm) [1, 5]: n. c.*)
UL 94 classification (1.6 mm) [1, 6]: n. c.*)

O=P1([O-])CCCC1.O=P1([O-])CCCC1.O=P1([O-])CCCC1.[Al+3] [PHOLAL, Aluminum salt of 1-hydroxy-1H-phospholane 1-oxide]
LOI [2, 7]: 22.5%
LOI ([2]; PA 6, 15 % as sole flame retardant): 28.5%
LOI ([2]; PA 6, 20 % as sole flame retardant): 28.0%
LOI [2, 5]: 37.0%
LOI [2, 6]: 41.0%
LOI ([2]; PBT, 10 % as sole flame retardant): 33.0%
LOI ([2]; PBT, 15 % as sole flame retardant): 34.0%
LOI ([2]; PBT, 20 % as sole flame retardant): 37.0%
UL 94 classification (1.6 mm) [1, 7]: n. c.*)
